PubChem BioAssay AID652243 | Drosophila RNAi Screening Center | 2013
The screen tested about 24,000 reagents; this is an unselected part of those with a known target gene and a result. Over the whole deposit, 246 (1%) got an active call. 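Plates not normalised; calls are printed but the firefly/Renilla ratio behind them is not deposited; fold cut for lowering reported inconsistently.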 Raw values vary from plate to plate and are shown uncorrected. Entries without a mark were called inactive. Reagent sequences are not shown. Not stated in the record: the amount of reagent.

Test: 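Fly genes required for human androgen receptor driven transcription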 (primary screen)
System: Drosophila S2R+ cells
Reagents: long dsRNA against Drosophila genes
Time to read-out: 72 h (48 h, then 24 h hormone)
Conditions: synthetic androgen R1881 at 10 nM for 24 h
Detection: 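Firefly light from an androgen-responsive reporter and Renilla control light per well, raw and unnormalised, for each of two replicates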
Scale: firefly reporter light: higher = more light from androgen-responsive reporter; Renilla control light: higher = more constitutive control signal (cell number, transfection)
Hit rule: 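Across duplicate plates, a knock-down whose log firefly/Renilla ratio shifted a set fold down or up from the GFP/LacZ control mean was a hit; the downward cut appears as both 1.5 and 3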
Meaning of the calls: active = hit: reporter lowered or raised; inactive = no hit

With CG5181 (GeneID 34018) [DRSC02825], what was measured?
firefly reporter light, replicate 1: 6.69e5; firefly reporter light, replicate 2: 8.38e5; Renilla control light, replicate 1: 1.30e6; Renilla control light, replicate 2: 1.27e6

For ORY (GeneID 3355174) [DRSC22883], what was measured?
firefly reporter light, replicate 1: 6.71e5; firefly reporter light, replicate 2: 8.38e5; Renilla control light, replicate 1: 1.89e6; Renilla control light, replicate 2: 1.77e6

For CG17574 (GeneID 36415) [DRSC06681], what was measured?
firefly reporter light, replicate 1: 4.24e5; firefly reporter light, replicate 2: 4.50e5; Renilla control light, replicate 1: 2.97e6; Renilla control light, replicate 2: 2.82e6

How did the screen score TTLL15 (GeneID 41300) [DRSC15543]?
firefly reporter light, replicate 1: 1.23e5; firefly reporter light, replicate 2: 1.79e5; Renilla control light, replicate 1: 2.03e6; Renilla control light, replicate 2: 2.31e6

How did the screen score CG14488 (GeneID 37030) [DRSC06460]?
firefly reporter light, replicate 1: 42621; firefly reporter light, replicate 2: 57644; Renilla control light, replicate 1: 8.45e5; Renilla control light, replicate 2: 8.45e5

With Cpr56F (GeneID 37299) [DRSC07326], what was measured?
firefly reporter light, replicate 1: 77307; firefly reporter light, replicate 2: 80899; Renilla control light, replicate 1: 9.19e5; Renilla control light, replicate 2: 8.14e5

What is on record for Cpr56F (GeneID 37299) [DRSC24002]?
firefly reporter light, replicate 1: 1.18e6; firefly reporter light, replicate 2: 1.01e6; Renilla control light, replicate 1: 9.98e5; Renilla control light, replicate 2: 1.22e6

What did the screen give for Act57B (GeneID 37368) [DRSC04042]?
firefly reporter light, replicate 1: 7.16e5; firefly reporter light, replicate 2: 8.42e5; Renilla control light, replicate 1: 2.42e6; Renilla control light, replicate 2: 2.42e6

Entries above whose gene name begins with C or c (5):
CG5181 (GeneID 34018) [DRSC02825] | firefly reporter light, replicate 1 = 6.69e5; firefly reporter light, replicate 2 = 8.38e5; Renilla control light, replicate 1 = 1.30e6; Renilla control light, replicate 2 = 1.27e6
CG17574 (GeneID 36415) [DRSC06681] | firefly reporter light, replicate 1 = 4.24e5; firefly reporter light, replicate 2 = 4.50e5; Renilla control light, replicate 1 = 2.97e6; Renilla control light, replicate 2 = 2.82e6
CG14488 (GeneID 37030) [DRSC06460] | firefly reporter light, replicate 1 = 42621; firefly reporter light, replicate 2 = 57644; Renilla control light, replicate 1 = 8.45e5; Renilla control light, replicate 2 = 8.45e5
Cpr56F (GeneID 37299) [DRSC07326] | firefly reporter light, replicate 1 = 77307; firefly reporter light, replicate 2 = 80899; Renilla control light, replicate 1 = 9.19e5; Renilla control light, replicate 2 = 8.14e5
Cpr56F (GeneID 37299) [DRSC24002] | firefly reporter light, replicate 1 = 1.18e6; firefly reporter light, replicate 2 = 1.01e6; Renilla control light, replicate 1 = 9.98e5; Renilla control light, replicate 2 = 1.22e6

The list goes on:
How did the screen score jus (GeneID 43453) [DRSC23018]?
firefly reporter light, replicate 1: 6.22e5; firefly reporter light, replicate 2: 7.37e5; Renilla control light, replicate 1: 8.10e5; Renilla control light, replicate 2: 8.60e5

With jus (GeneID 43453) [DRSC26804], what does the deposit list?
firefly reporter light, replicate 1: 2.11e5; firefly reporter light, replicate 2: 2.14e5; Renilla control light, replicate 1: 8.09e5; Renilla control light, replicate 2: 8.98e5

For LysRS (GeneID 31904) [DRSC17824], how do the results read?
firefly reporter light, replicate 1: 92835; firefly reporter light, replicate 2: 1.03e5; Renilla control light, replicate 1: 8.04e5; Renilla control light, replicate 2: 6.99e5

For LysRS (GeneID 31904) [DRSC25618], what was measured?
firefly reporter light, replicate 1: 1.11e6; firefly reporter light, replicate 2: 9.99e5; Renilla control light, replicate 1: 9.60e5; Renilla control light, replicate 2: 1.27e6
